Assay [1] addresses EphB4 receptor on CT26 cells (mouse (endogenous in CT26)) (UniProt P54761). Nature of the assay: confocal microscopy of cellular uptake; co-cultured SKOV3/A549 or CT26/NCM460 cells incubated 1 h in growth medium with RITC-labelled HP-TCS micelles (40 ug/mL polymer), with or without free TNYL (100:1 mol:mol over TNYL of the micelles); washed with PBS three times; only the binder purified.

Protein sequences, listed by entry. Tags and fused reporters are not part of them. Residues count along the entry.
UniProt P54761, residues 16-987: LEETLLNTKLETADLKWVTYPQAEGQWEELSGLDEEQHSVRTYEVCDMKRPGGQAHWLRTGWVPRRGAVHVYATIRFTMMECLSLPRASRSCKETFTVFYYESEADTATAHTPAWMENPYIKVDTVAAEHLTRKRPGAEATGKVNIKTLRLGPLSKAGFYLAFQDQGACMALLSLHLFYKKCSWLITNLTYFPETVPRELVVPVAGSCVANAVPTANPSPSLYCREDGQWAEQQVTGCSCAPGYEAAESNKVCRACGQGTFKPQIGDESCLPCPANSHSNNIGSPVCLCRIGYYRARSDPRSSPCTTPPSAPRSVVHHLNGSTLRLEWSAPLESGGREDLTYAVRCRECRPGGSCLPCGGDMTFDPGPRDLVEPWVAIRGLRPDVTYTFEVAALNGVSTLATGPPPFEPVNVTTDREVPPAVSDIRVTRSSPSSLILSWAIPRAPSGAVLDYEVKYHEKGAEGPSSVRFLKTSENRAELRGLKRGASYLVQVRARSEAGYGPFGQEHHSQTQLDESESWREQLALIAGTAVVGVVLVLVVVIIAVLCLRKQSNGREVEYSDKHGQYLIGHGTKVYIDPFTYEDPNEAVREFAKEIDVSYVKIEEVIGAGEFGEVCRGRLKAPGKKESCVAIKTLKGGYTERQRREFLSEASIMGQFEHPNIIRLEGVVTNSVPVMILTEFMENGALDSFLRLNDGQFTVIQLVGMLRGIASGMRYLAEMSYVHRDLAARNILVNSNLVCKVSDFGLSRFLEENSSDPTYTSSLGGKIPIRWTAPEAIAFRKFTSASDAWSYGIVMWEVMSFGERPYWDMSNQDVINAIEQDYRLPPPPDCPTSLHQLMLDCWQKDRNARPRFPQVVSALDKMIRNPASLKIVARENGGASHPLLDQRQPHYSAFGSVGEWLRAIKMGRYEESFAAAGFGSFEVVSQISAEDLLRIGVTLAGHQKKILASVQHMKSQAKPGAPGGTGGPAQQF
UniProt P54760, residues 16-987: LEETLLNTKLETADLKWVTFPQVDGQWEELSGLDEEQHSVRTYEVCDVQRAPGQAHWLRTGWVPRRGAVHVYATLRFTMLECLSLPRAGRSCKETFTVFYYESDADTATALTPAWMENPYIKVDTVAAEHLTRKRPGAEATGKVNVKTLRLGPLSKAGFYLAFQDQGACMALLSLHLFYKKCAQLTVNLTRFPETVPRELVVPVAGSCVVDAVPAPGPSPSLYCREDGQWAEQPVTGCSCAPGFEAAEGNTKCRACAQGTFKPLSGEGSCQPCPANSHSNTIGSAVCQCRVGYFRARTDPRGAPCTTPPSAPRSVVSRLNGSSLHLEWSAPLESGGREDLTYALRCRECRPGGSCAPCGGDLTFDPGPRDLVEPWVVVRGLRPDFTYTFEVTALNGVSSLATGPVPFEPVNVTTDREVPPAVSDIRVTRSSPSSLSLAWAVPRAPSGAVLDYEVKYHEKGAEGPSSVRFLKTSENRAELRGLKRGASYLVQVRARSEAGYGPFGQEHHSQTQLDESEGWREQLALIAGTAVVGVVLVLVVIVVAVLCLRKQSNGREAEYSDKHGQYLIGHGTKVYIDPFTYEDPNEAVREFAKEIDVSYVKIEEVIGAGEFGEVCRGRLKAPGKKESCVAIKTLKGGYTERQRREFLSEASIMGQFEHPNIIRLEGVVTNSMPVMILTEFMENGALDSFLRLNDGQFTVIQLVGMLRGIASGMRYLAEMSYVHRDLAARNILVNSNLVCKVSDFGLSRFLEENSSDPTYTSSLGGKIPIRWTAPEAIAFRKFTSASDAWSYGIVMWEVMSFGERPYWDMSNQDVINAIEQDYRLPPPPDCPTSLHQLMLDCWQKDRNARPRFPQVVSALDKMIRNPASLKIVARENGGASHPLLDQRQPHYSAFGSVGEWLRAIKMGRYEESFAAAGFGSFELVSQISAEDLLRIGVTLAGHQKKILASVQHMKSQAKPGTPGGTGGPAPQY

Assay [2] deals with EphB4 receptor on SKOV3 cells (human (endogenous in SKOV3)) (UniProt P54760). The description is as above.

Results are given in words; binding and its absence hold for the method and conditions named. Some entries that bind do so weakly or less than the wild type.

B1: TNYL peptide conjugated onto the surface of CSO-SA micelles loaded with HAuNS and PTX (HP-TCS) (peptide)
peptide: TNYLFSPNGPIARAW
modifications: conjugated onto the surface of CSO-SA micelles
As for B1, the binding entry in assay [1] and in assay [2] was “binds” throughout.

Source of the values: publication PMC8241057.
